Here are results for 2 sequences from publication doi:10.1101/2023.07.20.549950.

pKd: −log10 of the molar value. Construct, isoform or probe ends are uncertain for at least one entry. Tags and fusion partners may be left off the protein sequences shown.

In the data set the target is T1, RBM15 RRM2 (UniProt Q96T37).
T1 sequence (looked up, limits assumed): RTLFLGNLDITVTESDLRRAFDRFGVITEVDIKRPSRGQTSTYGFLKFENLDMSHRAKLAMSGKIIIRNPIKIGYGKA
The data set is described as follows: filter binding.

A word on the pKd: it is the Kd on a negative log10 scale, so that one unit is a factor of ten. A higher pKd goes with a small Kd. Take “GGCCAACACUCUGGCCCAUCGGGGUGACGGCC [XIST A-repeat stem-loop (32nt)]”: the pKd is < 5.82.
“GGUUCUUGAAAAGAGGACC [FIRRE RRD stem-loop (19nt)]”: the pKd is < 5.82.
